# Experimental data: PubChem BioAssay AID624291 (National Center for Advancing Translational Sciences (NCATS), 2012)
# Hit rate of the full screen: of about 350,000 compounds, about 220 (0.063%) were called active. The shares of active, inactive and inconclusive entries below differ from those in the screen. Calls come from the whole dose curve; as a rule, active = well fitted activation curve with a large enough effect; inconclusive = small, poorly fitted or top-dose-only effect; inactive = no such curve, though single readings can be large or run the other way. Potencies beside an inconclusive call are fits to weak or partial responses and may not hold up.
# Experiment: qHTS for Activators of Integrin-Mediated Alleviation for Muscular Dystrophy; note: nearly all actives have a fitted effect of over 60% in size;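 for activation: 100% = response of the positive control SU9516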
# Conditions: alpha7betagal myoblasts, beta-gal FDG fluorescence, 48 h; activation: at 38.3 µM (top of the series)
# Procedure, shortened: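 Alpha7betagal+/- myoblasts (passage 13) were plated 16-24 hr, then exposed to compounds (1:260 dilution of DMSO stock) for 48 hours at 37C. After MPER lysis, β-galactosidase reporter activity was read as FDG fluorescence (ex 480/em 540) after 30 minutes.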
# Potency is the fitted concentration of half-maximal effect.
Structure (SMILES),activation,Potency
Fc1ccc(CNCCc2ccc3c(c2)OCO3)cc1,inactive: -5.73%,
CC(=O)Nc1cc(Cl)c(N=Cc2ccc(O)cc2O)cc1Cl,,"inconclusive: 5.01 µM [activator, single point]"
COc1ccc(CN2CCCC(C(=O)c3ccc(Cl)cc3)C2)c(OC)c1 (stereo unspecified),inactive: -48.3%,
COc1ccc(C(=O)OC2CC[C@@]3(C)C4CCC5[C@]6(O)CC(O)[C@@]7(O)C(CN8CC(C)CCC8[C@@]7(C)O)[C@]6(O)C[C@@]53O[C@]24O)cc1OC (stereo partly specified),,"inconclusive: 28.2 µM [activator, single point]"
CC(=O)Nc1cccc2c1Cc1ccccc1-2,,"inconclusive: 5.01 µM [activator, single point]"
CC(C)c1cc(Br)c(NC(=O)Nc2cccnc2)c(Br)c1,,"inconclusive: 28.2 µM [activator, single point]"
O=P(NC(c1ccccc1)c1ccccc1)(Oc1ccccc1)Oc1ccccc1,inactive: 10.1%,
COc1ccc(Cn2c(O)c(C=Nc3c(C)n(C)n(-c4ccccc4)c3=O)c(=O)[nH]c2=O)cc1,inactive: -1.74%,
NC1=C([N+](=O)[O-])C(c2ccc3c(c2)OCO3)c2c(c3ccccc3oc2=O)O1 (stereo unspecified),,"inconclusive: 3.55 µM [activator, full curve, poor fit]"
O=c1cccc2n1CC1CC2CN(c2ncnc3c2cnn3-c2ccccc2)C1 (stereo unspecified),,"inconclusive: 3.16 µM [activator, single point]"
COc1ccc(Cn2c(O)c(/C=C3/C=CC=N3)c(=O)[nH]c2=O)cc1,,"inconclusive: 3.16 µM [activator, partial curve, poor fit]"
CC1CC(C)OP(=O)(OCCC#N)O1 (stereo unspecified),,"inconclusive: 8.91 µM [activator, partial curve, poor fit]"
CSc1ccc(CN2CCN(Cc3ccccc3Cl)CC2)cc1,inactive: -6.42%,
COc1cc(CNCCc2c[nH]c3ccccc23)cc(OC)c1,,"inconclusive: 17.8 µM [activator, single point]"
O=C(CN1CCCCC1)c1ccccc1F,,"inconclusive: 5.62 µM [activator, full curve, poor fit]"
O=C(Nc1ccc2c(c1)OCO2)N1CCN(c2ccccc2)CC1,,"inconclusive: 0.316 µM [activator, full curve, poor fit]"
COc1ccc(C(=O)N/N=C\c2coc3ccc(C)cc3c2=O)cc1,,"inconclusive: 28.2 µM [activator, single point]"
O=[N+]([O-])c1cccc(NP(=O)(Oc2ccccc2)Oc2ccccc2)c1,,"inconclusive: 1 µM [activator, partial curve, poor fit]"
COc1ccc(C[C@@H]2c3cc(O)c(OC)cc3CCN2C)cc1O,inactive: 41.8%,
O=P(c1ccccc1)(c1ccccc1)N(c1ccccc1)c1ccccc1,,"inconclusive: 14.1 µM [activator, partial curve, poor fit]"
COC(=O)C1=C(c2ccc(Cl)c(C(F)(F)F)c2)C[C@@H]2CC[C@H]1N2C(=O)NCCOc1ccc(OC)cc1,inactive: -42.1%,
Cc1cc(C=C2C(=O)N(C)C(=S)N(C)C2=O)c(C)n1-c1ccncc1,,"inconclusive: 2.82 µM [activator, partial curve, poor fit]"

Structure (SMILES),activation,Potency
O=C(Nc1ccc(Cl)cc1)O/N=C(\c1ccccc1)c1ccccn1,inactive: 3.09%,
O=C1NC(=O)C(=Cc2ccc(OCC(=O)N3CCOCC3)cc2)C(=O)N1,,"inconclusive: 8.91 µM [activator, partial curve, poor fit]"
COc1ccc(C(CNC(=O)c2ccc3c(c2)CCC3)N(C)C)cc1 (stereo unspecified),inactive: -16.1%,
O=C1NC(=O)N(c2ccc(F)cc2)C(=O)/C1=C/c1ccc(N2CCOCC2)cc1,,"inconclusive: 5.01 µM [activator, single point]"
CC(C)c1ccc(N2C(=O)NC(=O)/C(=C/C=C/c3ccco3)C2=O)cc1,inactive: -44%,
O=C(c1ccc(F)cc1)N1CCC2(CC1)OCCO2,,"inconclusive: 1 µM [activator, full curve, poor fit]"
Brc1ccccc1CNCCc1ccc2c(c1)OCO2,inactive: 5.34%,
C=C1C(O)[C@@H]2O[C@]3(CC[C@H](/C=C/C(C)[C@@H]4CC(C)=CC5(O[C@H](C[C@@](C)(O)C(=O)O)CCC5O)O4)O3)CC[C@H]2O[C@@H]1C(O)CC(C)[C@H]1OC2(CCCCO2)CCC1C (stereo partly specified),inconclusive: -41.5% [activator],
CCOc1ccc(-c2c(C)n(-c3ccc(OCC)cc3)c3[n+]2CCCCC3)cc1,inconclusive: -57.4% [activator],
O=C1NC(=O)C(C2CCCCCC2)C(=O)N1,,"inconclusive: 28.2 µM [activator, partial curve, poor fit]"
O=c1[nH]c(=S)n(-c2ccc(Cl)cc2)c(O)c1C=Nc1ccc(N2CCOCC2)cc1,inactive: 11.9%,
C[C@]12CCC3C(CC[C@H]4C[C@@H](O)[C@H](O)C[C@]34C)C1CC[C@@H]2O (stereo partly specified),inactive: 0%,
O=[N+]([O-])c1cccc(CN2CCN(Cc3ccc(Br)cc3)CC2)c1,inactive: 0%,
COc1cc(C)c(CN2CCN(c3ccccc3)CC2)cc1C,,"inconclusive: 1.78 µM [activator, partial curve, poor fit]"
COc1ccc(C(=O)C2CN(C)CC2c2ccc(Cl)cc2)cc1 (stereo unspecified),,"inconclusive: 28.2 µM [activator, single point]"
Cc1cc(O)c(CN2CC=C(c3ccccc3)CC2)cc1C(C)C,,"inconclusive: 8.91 µM [activator, partial curve, poor fit]"
Cc1c(N)c(C)c([N+](=O)[O-])c(C)c1[N+](=O)[O-],,"inconclusive: 28.2 µM [activator, single point]"
C(#CCN1CCOCC1)COCc1ccccc1,,"inconclusive: 5.01 µM [activator, single point]"
Brc1nc(-c2ccccc2)nc(-c2ccccc2)c1Br,,"inconclusive: 2 µM [activator, single point]"
C/C=C(\C)C(=O)N[C@@H](c1ccccc1)[C@@H](O)C(=O)O[C@H]1C[C@@]2(O)[C@@H](OC(=O)c3ccccc3)C3[C@](C)(C(=O)[C@H](O)C(=C1C)C2(C)C)[C@@H](O)C[C@H]1OC[C@@]31OC(C)=O (stereo partly specified),inconclusive: -48.8% [activator],
Cn1c(O)c(/C=C2/C=CC=N2)c(=O)[nH]c1=O,,"inconclusive: 28.2 µM [activator, single point]"
CC(=O)c1c(C)n(Cc2ccccc2Cl)c2ccc(O)cc12,,"inconclusive: 28.2 µM [activator, single point]"

# Random excerpt: 3 compounds from above
Structure (SMILES),activation,Potency
C/C=C(\C)C(=O)N[C@@H](c1ccccc1)[C@@H](O)C(=O)O[C@H]1C[C@@]2(O)[C@@H](OC(=O)c3ccccc3)C3[C@](C)(C(=O)[C@H](O)C(=C1C)C2(C)C)[C@@H](O)C[C@H]1OC[C@@]31OC(C)=O (stereo partly specified),inconclusive: -48.8% [activator],
COc1ccc(C(CNC(=O)c2ccc3c(c2)CCC3)N(C)C)cc1 (stereo unspecified),inactive: -16.1%,
O=C1NC(=O)C(C2CCCCCC2)C(=O)N1,,"inconclusive: 28.2 µM [activator, partial curve, poor fit]"

# The listing continues:

Structure (SMILES),activation,Potency
CCN1C[C@@]2(COC)C3[C@@H](OC)[C@H]4[C@@H]1[C@@]3(C1C[C@H]3[C@H](OC(=O)c5ccccc5)C1[C@]4(OC(C)=O)C[C@H]3OC)[C@@H](OC)C[C@H]2O (stereo partly specified),inactive: 3.58%,
COc1ccccc1NS(=O)(=O)c1cc(NC(=O)c2ccc(Cl)nc2)ccc1N1CCCC1,,"inconclusive: 31.6 µM [activator, partial curve, poor fit]"
Cc1ccsc1CNCCc1ccc(F)cc1,,"inconclusive: 7.08 µM [activator, partial curve, poor fit]"
COc1cc(C(=O)Nc2ccc(Br)cc2C(=O)c2ccccc2Cl)cc(OC)c1OC,inactive: -23.5%,
COc1ccc(CCNCc2ccc(C)s2)cc1OC,,"inconclusive: 5.01 µM [activator, single point]"
Cc1nn(Cc2ccccc2)c(C)c1C(=O)O,inactive: -10.9%,
CCC(=NCc1cccnc1)c1c(O)n(-c2ccc(C)cc2)c(=O)[nH]c1=O,,"inconclusive: 2.24 µM [activator, partial curve, poor fit]"
Cc1cc(C)c(-n2c(O)c(/C=N/NC(=O)c3ccncc3)c(=O)[nH]c2=O)c(C)c1,inactive: -0.942%,
COCc1c(CN)cnc(C)c1N,,"inconclusive: 12.6 µM [activator, partial curve, poor fit]"
C[C@]12CC[C@H](O)CC1=CC(=O)C1C2CC[C@]2(C)C(=O)CCC12 (stereo partly specified),inactive: 1.02%,
COc1ccc(CN2CCCC(C(=O)c3ccc(Cl)cc3)C2)c(O)c1 (stereo unspecified),,"inconclusive: 3.55 µM [activator, single point]"
Cc1nn(C)c(C)c1/C=C1/CC2C3CC=C4CC(O)CCC4(C)C3CCC2(C)C1=O (stereo unspecified),inactive: -37.8%,
CC1=CC2OC3CC4OC(=O)C=CC=CC(=O)OCCC(C)C(O)C(=O)OCC2(CC1O)C4(C)C31CO1 (stereo unspecified),inconclusive: -54% [activator],
O=C(NCCc1ccccc1)c1ccc2nccnc2c1,,"inconclusive: 28.2 µM [activator, single point]"
NS(=O)(=O)c1ccc(CNC(=O)COc2ccc3c4c(c(=O)oc3c2)CCCC4)cc1,,"inconclusive: 1 µM [activator, full curve, poor fit]"
CC12C=CC(=O)C=C1CCC1C2C(=O)CC2(C)C(=O)CCC12 (stereo unspecified),,"inconclusive: 5.01 µM [activator, single point]"
O=C(C(=C1N(Cc2ccc(Cl)nc2)CCN1Cc1ccc(Cl)nc1)[N+](=O)[O-])C(Cl)Cl,inactive: -53.3%,
C/C=C1/CN2[C@@H]3C4CO[C@@H]3c3c([nH]c5cc(OC)ccc35)[C@@H]2CC14 (stereo partly specified),inactive: 5.22%,
O=C1NC(=O)C2(CCN(S(=O)(=O)c3ccccc3)CC2)C(=O)N1,,"inconclusive: 3.16 µM [activator, single point]"
CC(=O)C1C(N2CC2)CC2C3CC=C4CC(O)CCC4(C)C3CCC21C (stereo unspecified),inactive: -26.2%,
O=P(O)(O)CN1CCNCCN(CP(=O)(O)O)CCNCC1,inactive: -42.6%,
COc1cc(C(C)=O)ccc1OC(=O)N(C)c1ccccc1,,"inconclusive: 2.82 µM [activator, single point]"
